Whole data set: some 33,000 sequences, median “E-score (-0.5 to 0.5)” near -0.0034, cut for the highest 2% near 0.25. Some of the results follow.
Biological target: T1, Yap3 (UniProt P38749)
T1 sequence: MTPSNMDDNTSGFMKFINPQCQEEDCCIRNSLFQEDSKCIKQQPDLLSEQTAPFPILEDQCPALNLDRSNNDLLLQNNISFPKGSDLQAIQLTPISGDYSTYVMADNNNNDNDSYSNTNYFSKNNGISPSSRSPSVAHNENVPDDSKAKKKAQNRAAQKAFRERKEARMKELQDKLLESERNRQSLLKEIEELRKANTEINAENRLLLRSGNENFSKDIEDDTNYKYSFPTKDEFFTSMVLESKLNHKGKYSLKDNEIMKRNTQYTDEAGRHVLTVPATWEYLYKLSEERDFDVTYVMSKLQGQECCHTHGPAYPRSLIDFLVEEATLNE
Assay: PBM E-score (8-mer binding enrichment) (E-score (-0.5 to 0.5)); higher = stronger / more preferred TF binding
Settings: protein concentration: 100 nM; construct: GST-full length
In short: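 The E-score, a modified Wilcoxon-Mann-Whitney statistic, was computed by the Universal PBM Analysis Suite for every ungapped eight-base word pooled with its reverse complement. Scans behind it were normalised with masliner after bound GST-tagged yeast transcription factors were detected with fluorescent anti-GST. The proteins, at about 100-200 nM, had been applied to universal all-10-mer Agilent arrays made double-stranded by primer extension.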

| Sequence | PBM E-score |
| --- | --- |
| GGGAGCTA | -0.0931 |
| ATAAGGCA | 0.0975 |
| CTCGTGGA | -0.0498 |
| GAGCGTGA | -0.158 |
| ATGAGTTG | 0.033 |
| ATGCGTGC | 0.0537 |
| GAAAGCCA | -0.0548 |
| CTGTCACA | -0.055 |
| AAAAATTA | 0.29 |
| AAGGATCA | 0.156 |
| AACTTTAA | 0.234 |
| TAGCTGGA | -0.272 |
| ATGAAGAC | 0.029 |
| GAATGTCC | 0.0177 |
| ATCCCGCG | 0.0961 |
| CGTTGCTC | -0.0454 |
| GTTGTAGA | -0.0313 |
| TGCAAACA | -0.0326 |
| ACTAGGCG | 0.171 |
| CGAATCGA | 0.301 |
| ATGTCACC | 0.138 |
| TGCGATAA | 0.238 |
| CGTACACA | 0.123 |
| ACGATACC | 0.157 |
| AAGCAGAT | 0.0622 |

| Sequence | PBM E-score |
| --- | --- |
| CGTGTCTC | -0.115 |
| AAATCGCC | -0.0404 |
| CACAGTTA | 0.228 |
| CAATCAAG | -0.0281 |
| ATGTAGAA | 0.0426 |
| CGAAAAGA | 0.244 |
| AACGTGGC | 0.0342 |
| AGTATTAC | 0.26 |
| CGATCCGC | -0.0285 |
| ACTCGGGA | 0.0571 |
| GCGTGACC | -0.182 |
| GAATATTC | 0.194 |
| CGGTAAAA | 0.114 |
| GACCTGCC | -0.212 |
| CCTTCCTC | -0.269 |
| CACTAACG | -0.0566 |
| CAATCTAG | 0.0544 |
| CAACCGGA | -0.0217 |
| CACAGAGA | 0.0569 |
| AAGCCCAA | 0.0176 |
| TGAGCTCA | 0.0969 |
| CACATGTG | 0.0456 |
| CATCAACA | 0.255 |
| AGACTGGA | -0.0998 |
| AATGTCCG | 0.0248 |

| Sequence | PBM E-score |
| --- | --- |
| AGAAATGG | 0.0834 |
| AGTTACTG | 0.0467 |
| CCCTCAGG | -0.312 |
| ACTGAAAT | 0.169 |
| ATGATGTC | 0.126 |
| CACAAGGC | -0.0703 |
| CAGGAGTC | -0.0693 |
| CCTGGCTA | -0.115 |
| AGAAAGGG | -0.0731 |
| GGCTAATA | 0.193 |
| CAAGCGCG | 0.0518 |
| CATGGTCA | 0.167 |
| GCGTAGCC | -0.176 |
| CACCTAAA | 0.0508 |
| AAGCAGTA | 0.0168 |
| ATCGAGAA | 0.107 |
| AGGAGGTG | -0.245 |
| ACAAGCTG | -0.00881 |
| CGAGATCC | -0.0606 |
| CACACGCC | 0.0625 |
| AGGCGCAT | 0.0348 |
| AGTCACGG | 0.00648 |
| CTAATTCC | 0.0879 |
| GTCTTCTA | 0.0359 |
| CGCTTTGC | 0.0215 |

4 entries picked at random from the list so far, as already listed:

| Sequence | PBM E-score |
| --- | --- |
| GACCTGCC | -0.212 |
| ATGTAGAA | 0.0426 |
| CGCTTTGC | 0.0215 |
| CTCGTGGA | -0.0498 |

Later entries:

| Sequence | PBM E-score |
| --- | --- |
| GACCCGAA | -0.124 |
| CCTAAGGC | -0.38 |
| ACGTCCCG | -0.14 |
| CAAAATCG | 0.0686 |
| GATTACCC | 0.147 |
| GATAGGCC | -0.148 |
| AAGCCCAC | -0.194 |
| CTTCGCCA | -0.281 |
| ACCGCCAT | 0.0211 |
| GATTCGCA | 0.165 |
| ACCATGCA | -0.0101 |
| CAATCATG | 0.12 |
| AGTTCTGG | 0.115 |
| CAATCATC | 0.0567 |
| GCGAGACA | -0.108 |
| ACAATGGC | 0.0811 |
| GTACTGAA | 0.117 |
| CTGGCCGA | -0.262 |
| CTGGCAGC | -0.329 |
| ACGCGTCC | -0.154 |
| AGCATTTA | -0.11 |
| AGACTTGC | -0.232 |
| CGGATCCC | -0.215 |
| AGCTGAAG | -0.05 |
| AGCACCGC | -0.145 |

| Sequence | PBM E-score |
| --- | --- |
| AACCATAA | 0.15 |
| ACCGCACC | -0.116 |
| GGAGTGAA | 0.0215 |
| GTGTCGGA | -0.0362 |
| TCATTCAA | 0.205 |
| AGGTGTTG | -0.0906 |
| TAGAAGCA | -0.0249 |
| AAGTGGAA | 0.0868 |
| CAGCCTTA | -0.202 |
| CCCAAACC | -0.0497 |
| CAATAATA | 0.237 |
| AACGGTGC | -0.0807 |
| ACTGGGCC | -0.19 |
| CGAACCTC | 0.0449 |
| CGCACACG | -0.135 |
| AGAGTCTA | -0.205 |
| GGGACCTA | 0.0331 |
| ATTTAAAA | 0.174 |
| ATTGTGAC | 0.189 |
| GTCAAGAA | 0.2 |
| GTACGCAA | -0.025 |
| CTGAGGGA | -0.192 |
| GCAGTTTA | -0.0546 |
| CTAGCAGA | -0.0869 |
| AATCAAGG | 0.127 |

A second format for some results above.
Sequence	PBM E-score
GGAGTGAA	0.0215
AGGTGTTG	-0.0906
CGAACCTC	0.0449
GTACGCAA	-0.025

The listing continues:

| Sequence | PBM E-score |
| --- | --- |
| CCCGGCAC | -0.398 |
| CCCAAGTA | -0.00219 |
| GGTATCAC | -0.016 |
| GGCATCAC | -0.0939 |
| AGGTTTTC | 0.087 |
| AATTCGGT | 0.231 |
| ACCTTAAA | 0.0173 |
| AGCCTAGG | -0.201 |
| ATACACAT | 0.2 |
| GTACAGCA | -0.136 |
| ACAGATAC | 0.0866 |
| GTCAGTCA | 0.067 |
| CTGTATAC | 0.0702 |
| GTCACCTA | -0.229 |
| ACTTAATC | 0.0861 |
| ACGATTGC | 0.124 |
| ACGACCCG | -0.148 |
| ACGGGGGA | -0.125 |
| CCATCGCC | -0.104 |
| CACGGTGC | -0.239 |
| CCTATACA | 0.0993 |
| AAAGCGAC | 0.101 |
| ATAAAAAG | 0.261 |
| GGGAATAA | 0.2 |
| AAAGCACT | 0.0728 |

| Sequence | PBM E-score |
| --- | --- |
| AATACGCC | -0.00808 |
| CTCTGCAC | -0.173 |
| CCGCTATC | -0.0253 |
| CGTCCCCA | -0.216 |
| GGATTTGA | 0.00732 |
| CTACGTAC | 0.0559 |
| ACGGAACC | 0.0898 |
| CTGGTGAA | -0.113 |
| GACGGTTA | -0.0113 |
| GAATAATA | 0.292 |
| ACAAGGAT | 0.113 |
| ATCGGTCA | -0.0834 |
| CATTATCG | 0.129 |
| CAAAGAGA | -0.161 |
| ACTTGTGC | -0.111 |
| AAGGTACA | 0.0352 |
| CGCTAAAG | 0.0735 |
| AAAAGTCA | -0.0413 |
| TCGTTGAA | 0.0281 |
| AAATCCTC | -0.0472 |
| ATAACTCC | 0.0161 |
| CTTTACAC | 0.179 |

Not a retest: entries from further up.

| Sequence | PBM E-score |
| --- | --- |
| CATTATCG | 0.129 |
| CAAAGAGA | -0.161 |
| ACTTGTGC | -0.111 |

From the supplement of paper PMC3334620
